Reference: PubChem BioAssay AID2685 (National Center for Advancing Translational Sciences (NCATS), 2010)
Some of the results follow. The main result of the screen is listed elsewhere. These columns were measured beside it and carry no call. Most of these compounds were active or inconclusive in the main read-out, so they are no random draw. The note in brackets gives the kind of curve behind each potency; many fits are weak.

Assay: qHTS Assay for Lipid Storage Modulators in Drosophila S3 Cells;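 for cell number change: cells counted by Cell Tracker Red CMTPX staining in the red channel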
Settings: BODIPY lipid droplet fluorescence, 18-24 h; for cell number change: measured here: cell count max response, cells fed with added oleic acid
Outline: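 Drosophila S3 cells got compounds at several concentrations plus oleic acid (400 uM solution). Laser-scanning cytometry with 488 nm excitation read lipid droplets at 500-530 nm and cells at 575-640 nm. Percent activity was relative to 20 uM Triacsin C.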

[1] = measured here: lipid fluorescence (Fed channel) AC50, cells fed with added oleic acid
[2] = measured here: cell number channel AC50, cells fed with added oleic acid

SMILES	cell number change	AC50 [1]	AC50 [2]
CCCC(=O)NC(c1ccc(N(C)C)cc1)c1ccc2cccnc2c1O (configuration not stated)	-22.8%	29.1 µM [falling, single point]	–
COc1ccc2c(c1)C(=O)N(c1ccc(C)cc1C)C(=O)C2	33.5%	20.6 µM [falling, single point]	5.8 µM [rising, partial curve]
COc1ccccc1-c1c(C(F)(F)F)oc2cc(OCC(=O)Nc3ccccc3C(F)(F)F)ccc2c1=O	-13.6%	23.1 µM [falling, single point]	–
CC(=O)c1cccc(OCCCOc2cccc3cccnc23)c1	-6.35%	–	–
CCN1CCc2c(OCC(=O)Nc3ccc4c(c3)OCCO4)cccc2C1=O	-5.2%	–	–
Cc1ccc(NCC(=O)c2ccc(C)cc2)cc1	-29.9%	11.6 µM [falling, single point]	–
CCOC(=O)c1c(N)nn(C(=O)C(C)(C)C)c1-c1ccccc1	3.78%	0.082 µM [rising, full curve, poor fit]	–
COc1cc(OC)c(N(C)S(=O)(=O)c2cccc(C(=O)Nc3nc(C)cs3)c2)cc1Cl	-15.5%	3.66 µM [rising, single point]	–
O=C(NCC1COc2ccccc2O1)C1CCCN(S(=O)(=O)c2cccc3cccnc23)C1 (configuration not stated)	23.4%	25.9 µM [falling, single point]	–
Cc1ccc(-c2nnc(Nc3ccc4c(c3)nc(C)n4C)c3ccccc23)cc1	-39%	23.1 µM [falling, single point]	29.1 µM [falling, single point]
CS(=O)(=O)N1CC(C(=O)NC2CC2)Oc2ccc(Cl)cc21 (configuration not stated)	152%	–	–
CCCOC(=O)/C(C(N)=NCc1ccccc1)=C(\O)OCCC	-59.3%	2.31 µM [rising, single point]	18.4 µM [falling, single point]
CCCN(CC(=O)Nc1ccccc1C)C(=O)/C=C/c1ccc(S(=O)(=O)N2CCCCCC2)cc1	21.4%	25.9 µM [rising, single point]	–
COc1cc(C2C(C#N)=C(N)Oc3cc(C)oc(=O)c32)ccc1OC(=O)N1CCOCC1 (configuration not stated)	21.4%	0.164 µM [falling, full curve, poor fit]	–
O=C(NC(=S)Nc1ccc(CN2CCOCC2)cc1)c1ccc(-c2ccc(Br)cc2)o1	51.1%	–	–
CSc1ccc(S(=O)(=O)NCC(=O)OCC(=O)N(C)C2CCCCC2)cc1[N+](=O)[O-]	-8.5%	–	–
COc1ccc(OCC(O)CN2CCN(c3ccccc3)CC2)cc1 (configuration not stated)	31.6%	–	14.6 µM [rising, partial curve, poor fit]

A draw from above in order of SMILES length, rising:
SMILES	cell number change	AC50 [1]	AC50 [2]
CC(=O)c1cccc(OCCCOc2cccc3cccnc23)c1	-6.35%	–	–
CS(=O)(=O)N1CC(C(=O)NC2CC2)Oc2ccc(Cl)cc21 (configuration not stated)	152%	–	–
CCCC(=O)NC(c1ccc(N(C)C)cc1)c1ccc2cccnc2c1O (configuration not stated)	-22.8%	29.1 µM [falling, single point]	–
CCCN(CC(=O)Nc1ccccc1C)C(=O)/C=C/c1ccc(S(=O)(=O)N2CCCCCC2)cc1	21.4%	25.9 µM [rising, single point]	–
